Data as given in publication PMC10454316.
Results are given in words; binding and its absence hold for the method and conditions named. Binding seen in cells or lysates may run through a third protein. Some binding calls cover weakened binding; strength is not graded here.

Sequences of proteins named here, by UniProt entry; tags and fusion partners are left off.
UniProt Q12809: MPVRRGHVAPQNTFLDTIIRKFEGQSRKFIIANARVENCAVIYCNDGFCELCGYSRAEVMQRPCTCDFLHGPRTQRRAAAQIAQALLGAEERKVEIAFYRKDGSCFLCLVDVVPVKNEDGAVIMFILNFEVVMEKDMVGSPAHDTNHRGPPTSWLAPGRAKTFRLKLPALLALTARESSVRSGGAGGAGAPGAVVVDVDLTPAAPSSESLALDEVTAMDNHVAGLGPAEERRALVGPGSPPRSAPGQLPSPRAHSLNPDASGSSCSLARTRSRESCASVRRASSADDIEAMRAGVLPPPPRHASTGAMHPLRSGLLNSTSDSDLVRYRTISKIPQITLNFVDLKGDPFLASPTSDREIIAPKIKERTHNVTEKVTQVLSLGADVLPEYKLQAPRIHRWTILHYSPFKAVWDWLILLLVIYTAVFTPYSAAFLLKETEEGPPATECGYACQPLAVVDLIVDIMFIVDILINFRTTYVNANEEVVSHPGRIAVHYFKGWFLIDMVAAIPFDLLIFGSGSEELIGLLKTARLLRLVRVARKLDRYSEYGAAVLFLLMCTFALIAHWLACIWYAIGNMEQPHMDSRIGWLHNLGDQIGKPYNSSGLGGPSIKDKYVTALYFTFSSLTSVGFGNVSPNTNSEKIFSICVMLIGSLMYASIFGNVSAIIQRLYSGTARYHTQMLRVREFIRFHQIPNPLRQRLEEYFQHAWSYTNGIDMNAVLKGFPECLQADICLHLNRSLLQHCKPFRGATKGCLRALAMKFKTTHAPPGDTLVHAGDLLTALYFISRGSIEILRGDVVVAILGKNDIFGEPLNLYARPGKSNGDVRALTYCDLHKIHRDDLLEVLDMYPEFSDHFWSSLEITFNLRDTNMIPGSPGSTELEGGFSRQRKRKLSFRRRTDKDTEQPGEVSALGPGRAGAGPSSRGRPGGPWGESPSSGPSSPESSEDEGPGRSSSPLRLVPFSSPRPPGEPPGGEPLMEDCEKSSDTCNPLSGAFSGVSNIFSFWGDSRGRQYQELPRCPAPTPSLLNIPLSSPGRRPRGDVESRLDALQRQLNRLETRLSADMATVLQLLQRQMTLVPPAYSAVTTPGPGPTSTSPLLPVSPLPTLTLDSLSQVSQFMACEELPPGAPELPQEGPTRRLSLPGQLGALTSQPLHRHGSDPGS

Biological target: wild-type hERG-GFP (Kv11.1 alpha subunit with GFP fused to the C-terminus) (human) (UniProt Q12809)
Test: co-IP; HEK293T co-transfected with WT-HERG-GFP and untagged WT- or S981Lfs-HERG; lysis buffer 5 mM EDTA, 250 mM NaCl, 50 mM HEPES, 0.1% NP40; IP with anti-GFP antibody and protein A/G plus, blot with anti-hERG antibody

For “wild-type hERG, untagged (Kv11.1 alpha subunit) (from UniProt Q12809 1-1159)”, the binding was “binds”.
